Experimental data taken from article PMC12078694.
Results are given in words; binding and its absence hold for the method and conditions named. Binding seen in cells or lysates may run through a third protein. Some binding calls cover weakened binding; strength is not graded here.

The chains behind the UniProt entries cited, without tags or fusion partners.
UniProt Q13464: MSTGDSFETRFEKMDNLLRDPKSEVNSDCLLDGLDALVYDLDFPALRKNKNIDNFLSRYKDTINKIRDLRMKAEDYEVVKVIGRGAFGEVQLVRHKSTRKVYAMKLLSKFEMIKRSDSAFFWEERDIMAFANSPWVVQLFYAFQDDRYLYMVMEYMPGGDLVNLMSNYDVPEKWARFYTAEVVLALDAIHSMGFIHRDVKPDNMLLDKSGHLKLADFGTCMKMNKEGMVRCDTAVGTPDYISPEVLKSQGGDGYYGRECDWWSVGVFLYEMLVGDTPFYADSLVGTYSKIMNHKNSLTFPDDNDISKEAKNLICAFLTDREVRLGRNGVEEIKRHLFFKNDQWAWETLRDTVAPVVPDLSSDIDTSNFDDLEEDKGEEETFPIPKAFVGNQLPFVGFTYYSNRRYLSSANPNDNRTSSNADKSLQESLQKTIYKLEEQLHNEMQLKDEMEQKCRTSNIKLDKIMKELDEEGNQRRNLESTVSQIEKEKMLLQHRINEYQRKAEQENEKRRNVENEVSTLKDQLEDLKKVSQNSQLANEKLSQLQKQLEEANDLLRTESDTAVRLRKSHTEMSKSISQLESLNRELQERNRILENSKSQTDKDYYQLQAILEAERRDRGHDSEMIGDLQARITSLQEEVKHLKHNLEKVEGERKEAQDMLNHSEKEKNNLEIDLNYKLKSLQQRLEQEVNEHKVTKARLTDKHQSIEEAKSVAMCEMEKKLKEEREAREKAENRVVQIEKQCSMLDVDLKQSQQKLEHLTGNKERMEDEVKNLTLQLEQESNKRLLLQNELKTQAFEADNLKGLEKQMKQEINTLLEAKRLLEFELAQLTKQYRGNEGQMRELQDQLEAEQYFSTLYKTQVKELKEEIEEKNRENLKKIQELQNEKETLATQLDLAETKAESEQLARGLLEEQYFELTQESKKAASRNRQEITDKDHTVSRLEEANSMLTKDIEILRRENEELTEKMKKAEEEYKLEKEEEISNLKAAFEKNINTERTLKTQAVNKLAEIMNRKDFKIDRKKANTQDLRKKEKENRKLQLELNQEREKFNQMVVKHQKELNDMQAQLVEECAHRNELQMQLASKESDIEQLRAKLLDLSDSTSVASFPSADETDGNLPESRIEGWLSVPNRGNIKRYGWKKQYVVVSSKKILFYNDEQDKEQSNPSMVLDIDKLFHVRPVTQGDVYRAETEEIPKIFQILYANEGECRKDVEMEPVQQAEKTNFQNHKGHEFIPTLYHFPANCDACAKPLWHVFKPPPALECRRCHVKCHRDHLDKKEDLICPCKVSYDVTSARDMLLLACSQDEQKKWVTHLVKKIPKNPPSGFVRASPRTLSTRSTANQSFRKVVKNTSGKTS
UniProt P46937: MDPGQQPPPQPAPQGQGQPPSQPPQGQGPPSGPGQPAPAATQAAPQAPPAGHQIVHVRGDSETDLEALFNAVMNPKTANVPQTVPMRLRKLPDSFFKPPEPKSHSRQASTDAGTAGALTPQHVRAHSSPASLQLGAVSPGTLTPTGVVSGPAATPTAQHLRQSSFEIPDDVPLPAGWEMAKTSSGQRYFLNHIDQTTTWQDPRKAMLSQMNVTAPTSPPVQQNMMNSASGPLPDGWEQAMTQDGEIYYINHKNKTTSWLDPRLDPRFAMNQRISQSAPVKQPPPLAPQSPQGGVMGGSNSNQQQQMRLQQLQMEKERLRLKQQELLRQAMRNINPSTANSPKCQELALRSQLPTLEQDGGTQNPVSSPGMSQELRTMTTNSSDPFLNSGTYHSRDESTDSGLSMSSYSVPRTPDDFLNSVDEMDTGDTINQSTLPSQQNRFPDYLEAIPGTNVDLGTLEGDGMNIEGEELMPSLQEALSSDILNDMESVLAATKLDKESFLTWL

Target: Rho-associated protein kinase 1 (UniProt Q13464)
Assay: co-IP; cell lysates (RIPA buffer) incubated with IgG or specific antibody (2 ug, ROCK1 antibody) 14 h at 4 °C, protein G agarose beads 4 h, three RIPA washes; Coomassie staining and western blot

“yes-associated protein (from UniProt P46937 1-504)” was tested, and the binding was “binds”.
